Earlier results as cited in US20240182510A1, “Compounds Useful in HIV Treatment” (ViiV Healthcare Company, priority 2021, published 2024).
Some of these results come from one statement about several compounds together. At least one compound was matched to its structure with a doubt left.

System: M184V mutation
Details: M184V mutation selected on a regimen containing 3TC/FTC

For Nc1ccn([C@@H]2CS[C@H](CO)O2)c(=O)n1 [Example 3TC, lamivudine], the “reduction of susceptibility to these drugs” value is listed as > 100 fold.
